The campaign covered roughly 320,000 compounds. About 22,000 (6.9%) were called active. Inconclusive means that the source gave no clear call. Such entries were picked first, then a sample of the others. The call rests on the fitted dose curve; in most records, active means well fitted inhibition curve with a large enough effect; inconclusive means small, poorly fitted or top-dose-only effect, or another doubt; inactive means no such curve, though single readings can be large or run the other way. Where the call is inconclusive, the potency comes from a doubtful curve fit.
experiment: Primary qHTS for delayed death inhibitors of the malarial parasite plastid, 96 hour incubation; conditions: P. falciparum luciferase reporter growth; series mostly up to 28.7 µM; activity change, negative = inhibition: at the top concentration
Procedure, shortened: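 96 h incubation, 37 C, 5% CO2, of luciferase-reporter P. falciparum-infected RBCs (2% hematocrit, 0.05% parasitemia final) with test compounds; endpoint luminescence.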
On the % scale 0 is the no-effect control and ±100 the full control effect; potency means the concentration at half of the fitted maximal effect.

Row | SMILES | Potency | activity change, negative = inhibition
1 | CCOc1ccccc1NC(=S)N1CCN(c2cccc(OC)c2)CC1 | inconclusive: 18.5 µM [inhibitor, single point] | 
2 | Cc1ccc(-n2c(C)cc(C(=O)OCC(=O)N(CC(C)C)C3CCS(=O)(=O)C3)c2C)cc1 (stereo not given) |  | inactive: 58.1%
3 | Cc1nn(C)c(C)c1C(C)NC(=O)c1ccc(OC2CCN(Cc3ccccn3)CC2)cc1 (stereo not given) |  | inactive: -23.8%
4 | O=C(Cc1csc(Nc2nc(=S)[nH]c3ccccc23)n1)NCc1ccc(Cl)cc1 |  | inactive: 24.8%
5 | CCOc1ccc(/C=N/n2nnnc2N)cc1O | inconclusive: 0.0465 µM [inhibitor, full curve, poor fit] | 
6 | C/C(=N\OC(=O)c1ccc(C)cc1)c1c(C)nc2cc(C)ccn12 |  | inactive: 21.8%
7 | O=c1nc(SCc2cccc(C(F)(F)F)c2)nc2ccccn12 | inconclusive: 4.15 µM [inhibitor, single point] | 
8 | CC(=O)c1c(C)n(CCc2ccc(Cl)cc2)c2ccc(O)cc12 | active: 5.86 µM | 
9 | Cc1ccc(C)c(S(=O)(=O)N2CCN(Cc3cc4c(cc3O)OCO4)CC2)c1 |  | inactive: -23.2%
10 | N#Cc1ccc(NC(=O)Cn2cnc(S(=O)(=O)N3CCc4ccccc43)c2)cc1 | active: 11.7 µM | 
11 | Cc1ccccc1OCC(=O)Nc1ccc2oc(=O)ccc2c1 |  | inactive: 116%
12 | Cc1ccc(Nc2cc(C)nc3ncnn23)cc1 | inconclusive: 9.28 µM [inhibitor, single point] | 
13 | CCCCn1c(SCC(=O)N2c3ccccc3CCc3ccccc32)nc2c1c(=O)n(C)c(=O)n2C | inconclusive: 11.7 µM [inhibitor, partial curve, poor fit] | 
14 | C/C(=N\NC(=S)NC(C)C)c1cccc([N+](=O)[O-])c1 | inconclusive: 11.7 µM [inhibitor, single point] | 
15 | C=C1C(=O)O[C@@H]2[C@H]1[C@@H](OC(=O)/C(C)=C/C)C/C(C)=C\C(=O)/C=C(\C)[C@@H]2O | inconclusive: 11.7 µM [inhibitor, single point] | 
16 | Cc1ccc(S(=O)(=O)N/N=C/c2ccccc2O)cc1 |  | inactive: -24.7%
17 | COc1cc(C(=O)Nc2nc3ccccc3[nH]2)ccc1OC(F)F |  | inactive: -66.5%
18 | CCOC(=O)CNC(=O)Cn1c(C)cc2ccccc2c1=O |  | inactive: 13.5%
19 | CC1(C)CC(=O)CC(=O)/C1=N\Nc1c(Cl)cc(Cl)cc1Cl |  | inactive: -1.71%
20 | Cc1ccc(C(C)C)c(OCc2ccc(C(=O)N/N=C/c3ccc(O)cc3O)cc2)c1 | inconclusive: 2.62 µM [inhibitor, full curve, poor fit] | 
21 | CN(C)CCCNC(=S)NCC(c1ccc(Cl)cc1Cl)c1c[nH]c2ccccc12 (stereo not given) | active: 2.08 µM | 
22 | C=CCn1c(SCC(=O)N2CCOCC2)nc2c([nH]c3ccccc32)c1=O | inconclusive: 3.29 µM [inhibitor, partial curve] | 
23 | O=C1NCC(COCc2ccco2)O1 (stereo not given) | inconclusive: 9.28 µM [inhibitor, partial curve] | 
24 | O=C(NCC1CCCN(Cc2ccc3c(c2)OCCO3)C1)c1ccc2c(c1)OCO2 (stereo not given) | inconclusive: 18.5 µM [inhibitor, single point] | 

Row | SMILES | Potency | activity change, negative = inhibition
25 | CC(=O)NC(NC(C)=O)c1ccc(N(C)C)cc1 |  | inactive: 7.4%
26 | C#CCOCCOCCOCCNc1nc(N2CCN(C(=O)CCCCCCCCCCNC(=O)[C@@H](CCSC)n3cc(CCO)nn3)CC2)nc(N2CCN(C(=O)CCCCCCCCCCNC(=O)[C@H](CCCN=C(N)N)n3cc(C[C@@H](C)CC)nn3)CC2)n1 | active: 1.17 µM | 
27 | COc1ccc(NC(=O)CN(C)S(=O)(=O)c2ccc3c(c2)NC(=O)CS3)cc1 | inconclusive: 10.4 µM [inhibitor, single point] | 
28 | COC(=O)c1ccc(C(C(=O)NC2CCCCC2)N(CCc2ccccc2)C(=O)Cc2cccs2)cc1 (stereo not given) | inconclusive: 18.5 µM [inhibitor, single point] | 
29 | COc1cccc(NS(=O)(=O)c2c(C)n(C)c(=O)n(C)c2=O)c1 |  | inactive: 3.97%
30 | CC(C)c1cccc(O)c(=O)c1 | active: 3.29 µM | 
31 | CCCS(=O)(=O)N1CCC(C(=O)NCc2ccccc2Cl)CC1 | active: 10.4 µM | 
32 | CCOc1ccc(N2C(=O)CNC2=S)cc1 | inconclusive: 11.7 µM [inhibitor, single point] | 
33 | CC(=O)c1cccc(N(CC(=O)Nc2ccc(S(=O)(=O)N3CCCC3)cc2)S(C)(=O)=O)c1 |  | inactive: -5.72%
34 | O=C(O)CC(NC(=O)c1ccncc1)c1ccccc1 (stereo not given) |  | inactive: 9.27%
35 | COc1ccc(CC2c3cc(OC)c(OC)cc3CCN2C)cc1O (stereo not given) |  | inactive: -6.09%
36 | Cc1ccc(S(=O)(=O)n2cc(C=O)c3ccccc32)cc1 |  | inactive: 8.68%
37 | CN(C(=O)c1ccc(NC(=O)Cc2cccc(NC(=O)C3CCN(C(=O)C4CC4)CC3)c2)cc1)C1CCCC1 | inconclusive: 10.4 µM [inhibitor, partial curve] | 
38 | CCN(c1ccccc1)S(=O)(=O)c1ccc2[nH]cc(C(=O)NCCOC)c(=O)c2c1 |  | inactive: 27.5%
39 | Cc1cc(Cl)c2oc(C(=O)NCCN3CCCCC3CO)c(C)c2c1 (stereo not given) | active: 13.1 µM | 
40 | COc1cccc(/C=C2\SC(=S)N(NS(=O)(=O)c3ccccc3)C2=O)c1OC |  | inactive: 34%
41 | Cc1cc(C)c2nc(N(CCCN(C)C)C(=O)c3ccc(S(=O)(=O)N4CCCCCC4)cc3)sc2c1 | active: 11.7 µM | 
42 | COCCN(C(=O)COC(=O)/C=C/c1ccc(OC)c(OC)c1)c1c(N)n(Cc2ccccc2)c(=O)[nH]c1=O | inconclusive: 11.7 µM [inhibitor, partial curve, poor fit] | 
43 | Cc1onc(-c2ccccc2)c1C(=O)NNC(=S)NC(=O)/C=C/c1cccs1 | inconclusive: 18.5 µM [inhibitor, single point] | 
44 | CCOC(=O)c1ccc(NC(=O)CSc2nnc(NC(=O)c3ccc(S(=O)(=O)N4CCOCC4)cc3)s2)cc1 |  | inactive: 5.32%
45 | Cc1cccc(N2CCN(C(=O)CSc3ccsc3[N+](=O)[O-])CC2C)c1 (stereo not given) | inconclusive: 10.4 µM [inhibitor, single point] | 
46 | Cc1nccn1CC(O)COC1CCCCC1 (stereo not given) | inconclusive: 6.57 µM [inhibitor, single point] | 
47 | O=C(NCc1ccco1)c1ccc(COc2ccccc2[N+](=O)[O-])o1 | inconclusive: 14.7 µM [inhibitor, single point] | 
48 | CN(C)c1ccc(P(=O)(Nc2cccc(C(F)(F)F)c2)N2CCOCC2)c(NC(=O)c2cccs2)c1 (stereo not given) | inconclusive: 6.57 µM [inhibitor, partial curve, poor fit] | 

Ordered by SMILES length (rising): part of the list above.
Row | SMILES | Potency | activity change, negative = inhibition
30 | CC(C)c1cccc(O)c(=O)c1 | active: 3.29 µM | 
46 | Cc1nccn1CC(O)COC1CCCCC1 (stereo not given) | inconclusive: 6.57 µM [inhibitor, single point] | 
25 | CC(=O)NC(NC(C)=O)c1ccc(N(C)C)cc1 |  | inactive: 7.4%
36 | Cc1ccc(S(=O)(=O)n2cc(C=O)c3ccccc32)cc1 |  | inactive: 8.68%
31 | CCCS(=O)(=O)N1CCC(C(=O)NCc2ccccc2Cl)CC1 | active: 10.4 µM | 
47 | O=C(NCc1ccco1)c1ccc(COc2ccccc2[N+](=O)[O-])o1 | inconclusive: 14.7 µM [inhibitor, single point] | 
45 | Cc1cccc(N2CCN(C(=O)CSc3ccsc3[N+](=O)[O-])CC2C)c1 (stereo not given) | inconclusive: 10.4 µM [inhibitor, single point] | 
43 | Cc1onc(-c2ccccc2)c1C(=O)NNC(=S)NC(=O)/C=C/c1cccs1 | inconclusive: 18.5 µM [inhibitor, single point] | 
40 | COc1cccc(/C=C2\SC(=S)N(NS(=O)(=O)c3ccccc3)C2=O)c1OC |  | inactive: 34%
27 | COc1ccc(NC(=O)CN(C)S(=O)(=O)c2ccc3c(c2)NC(=O)CS3)cc1 | inconclusive: 10.4 µM [inhibitor, single point] | 
38 | CCN(c1ccccc1)S(=O)(=O)c1ccc2[nH]cc(C(=O)NCCOC)c(=O)c2c1 |  | inactive: 27.5%
28 | COC(=O)c1ccc(C(C(=O)NC2CCCCC2)N(CCc2ccccc2)C(=O)Cc2cccs2)cc1 (stereo not given) | inconclusive: 18.5 µM [inhibitor, single point] | 
33 | CC(=O)c1cccc(N(CC(=O)Nc2ccc(S(=O)(=O)N3CCCC3)cc2)S(C)(=O)=O)c1 |  | inactive: -5.72%
41 | Cc1cc(C)c2nc(N(CCCN(C)C)C(=O)c3ccc(S(=O)(=O)N4CCCCCC4)cc3)sc2c1 | active: 11.7 µM | 
48 | CN(C)c1ccc(P(=O)(Nc2cccc(C(F)(F)F)c2)N2CCOCC2)c(NC(=O)c2cccs2)c1 (stereo not given) | inconclusive: 6.57 µM [inhibitor, partial curve, poor fit] | 
44 | CCOC(=O)c1ccc(NC(=O)CSc2nnc(NC(=O)c3ccc(S(=O)(=O)N4CCOCC4)cc3)s2)cc1 |  | inactive: 5.32%
37 | CN(C(=O)c1ccc(NC(=O)Cc2cccc(NC(=O)C3CCN(C(=O)C4CC4)CC3)c2)cc1)C1CCCC1 | inconclusive: 10.4 µM [inhibitor, partial curve] | 
42 | COCCN(C(=O)COC(=O)/C=C/c1ccc(OC)c(OC)c1)c1c(N)n(Cc2ccccc2)c(=O)[nH]c1=O | inconclusive: 11.7 µM [inhibitor, partial curve, poor fit] | 

Continued:

Row | SMILES | Potency | activity change, negative = inhibition
49 | Cc1ccc(CNC(=O)C2CCCN2C(=O)Nc2ccc(C)cc2)cc1 (stereo not given) | inconclusive: 11.7 µM [inhibitor, single point] | 
50 | COc1cc(Cl)c(C)cc1NC(=O)CC1CCCC1 | inconclusive: 0.0522 µM [inhibitor, full curve, poor fit] | 
51 | COC1CCCN(C(=O)c2ccc3nc(Cc4cccc(Cl)c4)oc3c2)C1 (stereo not given) | inconclusive: 11.7 µM [inhibitor, single point] | 
52 | CCCN(CCC)S(=O)(=O)c1ccc(NS(=O)(=O)c2ccc(F)cc2)cc1 |  | inactive: 60.3%
53 | COc1cccc(/C=C/C(=O)OCC(=O)Nc2nnc(-c3ccccc3)o2)c1 | inconclusive: 2.08 µM [inhibitor, single point] | 
54 | COc1cc(C)nc(N(Cc2ccccc2)S(=O)(=O)c2ccccc2)n1 | inconclusive: 0.294 µM [inhibitor, partial curve, poor fit] | 
55 | O=C(NCc1ccccn1)C(C(=O)c1ccc(F)cc1)n1ccccc1=O (stereo not given) | active: 13.1 µM | 
56 | N#Cc1c(N)nc2c3c(sc(=N)c2c1N)NC(=O)CC3c1c(F)cccc1Cl (stereo not given) | active: 8.28 µM | 
57 | CCOC(=O)c1sc(NC(=O)/C=C/c2cnn(C)c2C)c(C(=O)OC(C)C)c1C | inconclusive: 18.5 µM [inhibitor, single point] | 
58 | C=CCc1cc(C)ccc1OCCCn1ccnc1 | active: 11.7 µM | 
59 | COc1ccc(CCCc2nnc(SCc3nc4ccccc4c(=O)[nH]3)n2C)cc1 | inconclusive: 5.86 µM [inhibitor, partial curve, poor fit] | 
60 | COc1ccc2c(c1)CCc1c(C(=O)N3CC4(C)CC3CC(C)(C)C4)noc1-2 (stereo not given) | inconclusive: 4.65 µM [inhibitor, partial curve, poor fit] | 
61 | Cc1[nH]c2ccccc2c1C(=O)CSc1nccc(=O)[nH]1 | inconclusive: 4.65 µM [inhibitor, partial curve, poor fit] | 
62 | COc1ccc2ccccc2c1CNC(C)CCc1ccccc1 (stereo not given) |  | inactive: -105%
63 | Cc1ccccc1CN1C(=O)c2ccccc2Sc2ccc(C(=O)NCCN3CCOCC3)cc21 | inconclusive: 18.5 µM [inhibitor, single point] | 
64 | NC(=O)CC(c1ccccc1)c1ccc2c(c1)OCO2 (stereo not given) | inconclusive: 1.17 µM [inhibitor, single point] | 
65 | Cc1ccc(NS(=O)(=O)c2ccc(NC(=O)C3CC3)cc2)c(C)c1 | inconclusive: 4.15 µM [inhibitor, partial curve, poor fit] | 
66 | CC/C(=C\c1oc2cc3ccccc3cc2[n+]1CC)Nc1ccccc1 | inconclusive: 1.31 µM [inhibitor, partial curve, poor fit] | 
67 | CC(c1nnc(SCC(=O)c2c(N)n(C3CC3)c(=O)[nH]c2=O)n1-c1ccc(F)cc1)N(C)C (stereo not given) | inconclusive: 13.1 µM [inhibitor, single point] | 
68 | Cc1ncn(C23CC4CC(CC(C4)C2)C3)n1 | inconclusive: 9.28 µM [inhibitor, partial curve] | 
69 | CCN1CCN(c2ccc(S(=O)(=O)N3CCOCC3)cc2NC(=O)c2ccc(C)c(C)c2)CC1 | inconclusive: 18.5 µM [inhibitor, single point] | 
70 | Brc1ccc(N/N=C(/N=Nc2nn[nH]n2)c2ccccc2)cc1 | active: 1.85 µM | 
